Results taken from PubChem BioAssay AID2685 (National Center for Advancing Translational Sciences (NCATS), 2010).
This is one part of the list. Shown are side measurements of this screen, not its main read-out; they come without a call. The list favours compounds with an active or inconclusive main result. Words in brackets tell the shape of the fitted curve; partial curves, single points and poor fits give uncertain potencies.

Test: qHTS Assay for Lipid Storage Modulators in Drosophila S3 Cells;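 on cell number change: cells counted by Cell Tracker Red CMTPX staining in the red channel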
Conditions: BODIPY lipid droplet fluorescence, 18-24 h; for cell number change: measured here: cell count max response, cells fed with added oleic acid
Method in brief: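 Drosophila S3 cells loaded with oleic acid (400 uM, as added) and compounds at several concentrations; lipid droplets imaged by 488-nm laser-scanning cytometry, 500–530 nm intensity and object ratio to cell channel. Percent activity normalized to 20 uM Triacsin C.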

[1] = measured here: cell number channel AC50, cells fed with added oleic acid
[2] = measured here: lipid fluorescence (Fed channel) AC50, cells fed with added oleic acid

SMILES | cell number change | AC50 [1] | AC50 [2]
CCOC(=O)c1cc(-c2ccccc2)sc1N | -37% | 23.1 µM [falling, single point] | 18.4 µM [falling, single point]
O=[N+]([O-])c1cccc(CP(=O)(c2ccccc2)c2ccccc2)c1 | 3.76% |  | 32.6 µM [falling, single point]
COc1ccc(CCNC(=O)c2ccc(CS(=O)(=O)c3ccc(C)cc3)o2)cc1OC | -22.2% |  | 1.16 µM [rising, full curve]
O=C(O)c1ccc(CNS(=O)(=O)c2ccc(Oc3ccccc3Cl)cc2)cc1 | -2.36% |  | 11.6 µM [rising, partial curve]
COc1cc(OC)cc(-c2cc3nc(C)c(CCC(=O)O)c(C)n3n2)c1 | -14.8% |  | 32.6 µM [rising, single point]
CCn1cc(C(=O)OCC(=O)c2cc(C)n(-c3cccc(C(F)(F)F)c3)c2C)c(=O)c2ccc(C)nc21 |  | 1.16 µM [rising, full curve, poor fit] | 
CCCOC(=S)N/C(=N\S(=O)(=O)c1ccccc1)c1ccccc1 | -19.8% | 0.651 µM [falling, full curve, poor fit] | 0.731 µM [falling, full curve]
Cc1cc(C)c(NS(=O)(=O)c2ccc(NC(=O)c3cccs3)cc2)c(C)c1 | 83.5% | 29.1 µM [rising, single point] | 29.1 µM [rising, single point]
O=c1c2c(nc3n1CCCCC3)sc1c(O)cccc12 | -9.71% |  | 29.1 µM [falling, partial curve, poor fit]
CCOC(=O)[C@H]1[C@H]2COc3ccc(Br)cc3[C@@H]2N2C(=O)CN(Cc3ccc(C)cc3)C(=O)[C@@]12C | 11.7% |  | 0.411 µM [rising, full curve]
COc1cccc(N2CCN(S(=O)(=O)c3ccc(-c4cnc(C5CC5)o4)cc3)CC2)c1 | -8.37% |  | 
COc1cccc(NC(=O)C2CCN(C(=O)[C@@H]3Cc4ccccc4CN3)CC2)c1 | 10.1% |  | 
COc1ccc(-c2cnc(SCC(=O)Nc3ccc4c(c3)OCO4)n2Cc2ccco2)cc1 | -12% |  | 
Cc1csc(Sc2ccc(S(=O)(=O)N3CCCC3)cn2)n1 |  |  | 6.51 µM [rising, partial curve, poor fit]
CSCCC(NC(=O)c1ccccc1Br)C(=O)N1CCCC(C(F)(F)F)C1 (stereo not given) | 13.2% |  | 18.4 µM [rising, single point]
CCCCn1nc(C(=O)N(CCOC)c2c(N)n(CCCC)c(=O)[nH]c2=O)c2ccccc2c1=O | -20.8% |  | 4.11 µM [falling, full curve]
CCc1ccc(-n2c(C)nc3cc(C(=O)NCc4cccnc4)ccc32)cc1 | 21.7% | 1.64 µM [rising, partial curve, poor fit] | 2.06 µM [rising, full curve]
CN(C)CCNC(=O)c1c(CSc2ccccc2)noc1C(=O)NCc1ccccc1 | 15.3% |  | 14.6 µM [rising, partial curve, poor fit]
Cn1c(COc2ccc(Cl)cc2)nnc1SCC(=O)NC1CCCC1 |  |  | 0.082 µM [falling, full curve, poor fit]
CCc1c(O)nc2sc3ccccc3n2c1=O | 66.1% | 18.4 µM [rising, single point] | 

SMILES | cell number change | AC50 [1] | AC50 [2]
CCn1ncc(CN2CCN(Cc3ccc(OC)c(C)c3C)C(CCO)C2)c1C (stereo not given) | 10.7% |  | 0.058 µM [rising, full curve, poor fit]
CC(=O)N1CCN(C(=O)c2cc3c(s2)CCC(C)C3)CC1 (stereo not given) | 33% |  | 
CC(C)(CO)NC(=O)C12CC3CC(CC(Br)(C3)C1)C2 | -28.5% |  | 0.291 µM [falling, partial curve, poor fit]
COc1ccc(Cl)cc1NC(=O)c1cccnc1 | -15.2% |  | 0.517 µM [rising, full curve, poor fit]
CCCCN(C)C(=O)Cc1c(OC)ccc2cc(Br)ccc12 | 4.06% |  | 3.66 µM [rising, full curve]
COc1ccccc1C1C=C(c2ccc(C)cc2)Nc2nnnn21 (stereo not given) | -7.26% |  | 6.51 µM [rising, single point]
CCC1CCCCN1C(=O)CSc1nc(C)cc(C)n1 (stereo not given) | 40.8% | 2.31 µM [rising, full curve] | 2.59 µM [rising, single point]
Cc1noc(C)c1C(=O)NCCc1ccccc1 | 43.7% | 16.4 µM [rising, single point] | 
COc1cccc(CNC(=O)C2CCCN(C(=O)c3ccc(Cl)cc3)C2)c1 (stereo not given) | -1.55% |  | 18.4 µM [rising, single point]
COCCCn1c(-c2ccc(OC)cc2)nc2c1c(=O)[nH]c(=O)n2Cc1ccccc1 | 13.5% |  | 6.51 µM [rising, partial curve, poor fit]
O=C(c1ccccc1F)n1c2c(c3ccccc31)CCCC2 |  | 6.51 µM [rising, single point] | 
C=CCc1c(C)nc(SC)nc1Nc1ccc(C(C)=O)cc1 |  |  | 29.1 µM [falling, single point]
Cc1cccc(Nc2c([N+](=O)[O-])c(=O)n(C)c3ccccc23)c1 | -6.85% |  | 2.31 µM [rising, single point]
Cc1cccc(C(=O)NC(=S)NCc2cccnc2)c1 | 8.39% |  | 0.58 µM [rising, single point]
CCOc1ccccc1C(=O)N[C@H](C(=O)NCc1ccccc1)C(C)C | 7.44% |  | 
CC(C)C(NC(=O)CSc1ccc(Cl)cc1)C(C)C | -11.6% |  | 0.13 µM [falling, full curve]
Cc1cc(C(=O)COc2cccnc2[N+](=O)[O-])c(C)n1Cc1cccs1 | 35.2% | 0.206 µM [rising, full curve] | 4.61 µM [rising, full curve]
C/C(=N/NC(=O)CNC(=O)C1COc2ccccc2O1)c1ccc2c(c1)OCCO2 (stereo not given) |  |  | 5.8 µM [rising, single point]
CC1CCN(Cc2c(C(=O)N/N=C/c3cc(Br)ccc3O)nnn2-c2nonc2N)CC1 | 9.46% |  | 29.1 µM [rising, single point]
COc1ccc(N(C(C)C(=O)N2CCCC2)S(C)(=O)=O)cc1 (stereo not given) | -9.49% |  | 

SMILES | cell number change | AC50 [1] | AC50 [2]
Cc1ccc(Cc2nnc(SCC(=O)Nc3ccccc3)n(N)c2=O)cc1 | 0.107% |  | 11.6 µM [falling, partial curve]
CCCCNC(=O)CN(CCc1ccccc1)S(C)(=O)=O | -46.5% | 5.17 µM [falling, full curve] | 3.66 µM [falling, full curve]
Cc1ccc(F)cc1NC(=O)Nc1cc(C(C)(C)C)nn1C | 3.96% | 6.51 µM [falling, single point] | 6.51 µM [falling, single point]
N#Cc1ccc(N/N=C/c2cn(-c3ccccc3)nc2-c2ccccc2)c([N+](=O)[O-])c1 | 3.52% |  | 0.13 µM [rising, full curve, poor fit]
COc1ccc(NC(=O)CSc2ccc(NC(C)=O)cc2)cc1S(=O)(=O)N1CCCCC1 | -12.2% | 4.61 µM [rising, single point] | 
CN(C)S(=O)(=O)c1ccc(N)c([N+](=O)[O-])c1 | -43.9% | 29.1 µM [falling, single point] | 
Cc1ccccc1NC(=O)CCS(=O)(=O)c1cccc2nonc12 | 9.52% |  | 
COc1ccc2nc(-c3ccccc3)cc(OC)c2c1 |  | 0.00461 µM [rising, full curve, poor fit] | 8.2 µM [rising, partial curve]
Cc1cc(OCC(=O)N2CCC(C(N)=O)CC2)c2c(C)cc(=O)oc2c1 | 13.9% |  | 
CCOC(=O)c1ccccc1NC(=O)C1CC(=O)N(c2ccccc2)C1 (stereo not given) | 32.1% | 29.1 µM [rising, single point] | 29.1 µM [rising, single point]
CCC(Oc1cccc(C)c1)C(=O)Nc1ccccc1C(=O)N1CCOCC1 (stereo not given) | -41.5% | 16.4 µM [falling, single point] | 20.6 µM [falling, partial curve]
Cc1ccc(C)c(Cn2nnc3c(=O)[nH]c(C4CCN(C(=O)c5cccs5)CC4)nc32)c1 | 74.8% | 5.8 µM [rising, partial curve] | 
O=C(/C=C/c1ccc(Cl)cc1)c1ccc([N+](=O)[O-])o1 | -66.2% | 18.4 µM [falling, partial curve] | 4.11 µM [falling, full curve]
O=C(Nc1ccc(S(=O)(=O)Nc2nccs2)cc1)C1CCCCC1 | 17.7% |  | 
O=C(NC(O)C(=O)c1ccccc1)c1ccc(F)cc1 (stereo not given) | 23% |  | 
Cc1c(/C=C/C(=O)c2ccccc2)cnn1C | -4.4% |  | 2.91 µM [falling, single point]
C=CCn1c(COc2ccc(OC)cc2)nc2ccccc21 | -6.82% |  | 29.1 µM [rising, single point]
Cc1nc([N+](=O)[O-])c(Br)n1CC(=O)c1ccc(Br)cc1 | 62.6% | 13 µM [rising, partial curve] | 9.2 µM [rising, partial curve]
COc1ccccc1N1C(=O)C2C3CC(c4ccccc4)C(C3)C2C1=O (stereo not given) |  | 2.06 µM [rising, partial curve, poor fit] | 
O=S1(=O)C=CC(c2ccccc2)C1 (stereo not given) | 14.4% |  | 0.411 µM [falling, single point]

Complete entries, looked up by structure:
`COc1ccccc1N1C(=O)C2C3CC(c4ccccc4)C(C3)C2C1=O` (stereo not given) is listed with AC50 [1]: 2.06 µM [rising, partial curve, poor fit]
`Cc1ccc(C)c(Cn2nnc3c(=O)[nH]c(C4CCN(C(=O)c5cccs5)CC4)nc32)c1` is listed with cell number change: 74.8%; AC50 [1]: 5.8 µM [rising, partial curve]
`Cc1cc(OCC(=O)N2CCC(C(N)=O)CC2)c2c(C)cc(=O)oc2c1` is listed with cell number change: 13.9%
`COc1cccc(NC(=O)C2CCN(C(=O)[C@@H]3Cc4ccccc4CN3)CC2)c1` is listed with cell number change: 10.1%
